Results deposited as PubChem BioAssay AID1053208 (Peter MacCallum Cancer Centre, 2014).
The whole screen tested about 17,000 reagents; this is an unselected part. In the full data, 788 (4.7%) are marked active. 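Calls rest on z-score classes alone; an extra cut-off of viability at most 70% of control was not applied to them.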 A number with no mark means an inactive call.

- Screen: 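Genes whose silencing cuts survival of bone tumour cells only with doxorubicin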 (primary screen)
- Cells: mouse osteosarcoma cells, early-passage culture from an engineered mouse model of fibroblastic bone tumour
- Reagent: siRNA pool against mouse genes, 40 nM
- Timing: about 120 h (48 h before drug, then 72 h with drug)
- Challenge: doxorubicin 100 nM for 72 h, roughly 30-40% inhibitory dose
- Measured: 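Luminescent ATP signal taken as viability with or without 100 nM doxorubicin for 72 h; mean of two wells set against non-targeting siRNA and turned into robust z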
- Direction: viability z-score with doxorubicin and doxorubicin viability vs non-targeting: higher = more viable cells under doxorubicin; viability z-score without drug: higher = more viable cells with knock-down alone; z-score of drug to no-drug ratio: higher = less drug sensitisation by knock-down
- Call rule: 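a pool counts as active when its viability z-score with doxorubicin is -2 or below and its z-score without drug lies between -2 and 2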

| Gene | PubChem SID | combined z-score class | viability z-score with doxorubicin | viability z-score without drug | z-score of drug to no-drug ratio | doxorubicin viability vs non-targeting |
| --- | --- | --- | --- | --- | --- | --- |
| Abca16 (GeneID 233810) | SID152285551 | no change with or without drug | 1.12 | 0.51 | 0.9 | 1.04 |
| Elmo1 (GeneID 140580) | SID152343107 | no change with or without drug | 0.22 | 0.17 | 0.22 | 0.96 |
| Foxa3 (GeneID 15377) | SID152301261 | no change with or without drug | -0.34 | 0.51 | -0.56 | 0.91 |
| Arhgap26 (GeneID 71302) | SID152309634 | low cell count with doxorubicin only (active) | -2.47 | -1.52 | -1.57 | 0.72 |
| Mapre3 (GeneID 100732) | SID152259316 | no change with or without drug | 0.9 | -0.17 | 1.24 | 1.02 |
| Mdga2 (GeneID 320772) | SID152285567 | no change with or without drug | -0.34 | -0.84 | 0.34 | 0.91 |
| Rims4 (GeneID 241770) | SID152297444 | no change with or without drug | 0 | 0.84 | -0.45 | 0.94 |
| Or5h26 (GeneID 258775) | SID152266109 | no change with or without drug | -0.45 | -0.17 | -0.22 | 0.9 |
| A430085C19 (retired record) (GeneID 328986) | SID152262874 | no change with or without drug | -0.45 | -1.18 | 0.45 | 0.9 |
| Sh3bgrl2 (GeneID 212531) | SID152283145 | no change with or without drug | 0.45 | -0.34 | 0.79 | 0.98 |
| Nos2 (GeneID 18126) | SID152330397 | no change with or without drug | -0.22 | -0.17 | 0 | 0.92 |
| Kpna4 (GeneID 16649) | SID152279296 | no change with or without drug | -0.45 | -0.51 | 0 | 0.9 |
| Baiap2 (GeneID 108100) | SID152308298 | no change with or without drug | 1.12 | 0.51 | 0.9 | 1.04 |
| Agmo (GeneID 319660) | SID152296776 | no change with or without drug | 0.45 | -0.51 | 1.01 | 0.98 |
| Acat1 (GeneID 110446) | SID152275758 | no change with or without drug | -1.91 | -1.52 | -0.9 | 0.77 |
| Stat3 (GeneID 20848) | SID152268578 | no change with or without drug | 0.34 | -0.17 | 0.56 | 0.97 |
| Cbl (GeneID 12402) | SID152331276 | no change with or without drug | 1.69 | 0.17 | 1.8 | 1.09 |
| Krtap19-3 (GeneID 77918) | SID152306133 | no change with or without drug | -1.24 | -0.17 | -1.12 | 0.83 |
| Igf2bp1 (GeneID 140486) | SID152294980 | no change with or without drug | -0.9 | -1.01 | -0.11 | 0.86 |
| Or52b4 (GeneID 259083) | SID152326241 | high cell count without drug only | 1.91 | 2.02 | 0.67 | 1.11 |
| Fam151a (GeneID 230579) | SID152293252 | high cell count without drug only | 1.57 | 2.7 | -0.11 | 1.08 |
| Or4a79 (GeneID 404331) | SID152278088 | low cell count with doxorubicin only (active) | -2.02 | -1.52 | -1.12 | 0.76 |
| Pla2g3 (GeneID 237625) | SID152317505 | no change with or without drug | 0.45 | 1.35 | -0.34 | 0.98 |
| Neil2 (GeneID 382913) | SID152297149 | no change with or without drug | 0.9 | -0.17 | 1.24 | 1.02 |
| Jdp2 (GeneID 81703) | SID152329530 | no change with or without drug | -1.24 | 0.51 | -1.46 | 0.83 |
| Uqcc1 (GeneID 56046) | SID152335470 | no change with or without drug | 0 | -0.51 | 0.45 | 0.94 |
| Clca2 (GeneID 229933) | SID152319125 | no change with or without drug | -0.45 | -0.84 | 0.22 | 0.9 |
| Smco4 (GeneID 170748) | SID152284016 | no change with or without drug | -0.67 | 0.67 | -1.01 | 0.88 |
| Gsc2 (GeneID 195333) | SID152292963 | no change with or without drug | -0.9 | -0.34 | -0.67 | 0.86 |
| Snx3 (GeneID 54198) | SID152305807 | no change with or without drug | -0.45 | 0.17 | -0.45 | 0.9 |
| Amigo2 (GeneID 105827) | SID152280236 | no change with or without drug | 0.11 | 1.18 | -0.56 | 0.95 |
| Kcnq1 (GeneID 16535) | SID152340753 | no change with or without drug | -0.45 | -0.17 | -0.22 | 0.9 |
| Zfp397 (GeneID 69256) | SID152337210 | low cell count without drug only | -0.22 | -3.54 | 2.92 | 0.92 |
| Prx (GeneID 19153) | SID152269560 | no change with or without drug | 0.9 | -0.51 | 1.46 | 1.02 |
| Snph (GeneID 241727) | SID152279739 | no change with or without drug | -0.67 | -1.85 | 0.79 | 0.88 |
| Eme1 (GeneID 268465) | SID152272559 | no change with or without drug | -0.34 | -0.51 | 0.11 | 0.91 |
| St3gal1 (GeneID 20442) | SID152306620 | no change with or without drug | 0.45 | -0.34 | 0.79 | 0.98 |
| Map3k21 (GeneID 234878) | SID152269782 | no change with or without drug | 0.22 | -0.17 | 0.45 | 0.96 |
| Reps1 (GeneID 19707) | SID152262248 | no change with or without drug | -1.69 | -1.85 | -0.45 | 0.79 |
| Or10ag58 (GeneID 259030) | SID152295521 | no change with or without drug | -0.67 | -0.17 | -0.45 | 0.88 |
| G3bp1 (GeneID 27041) | SID152317552 | no change with or without drug | -0.45 | -0.17 | -0.22 | 0.9 |
| Elapor2 (GeneID 231014) | SID152264115 | no change with or without drug | -1.35 | -1.69 | -0.22 | 0.82 |
| Mef2c (GeneID 17260) | SID152315388 | no change with or without drug | 0.45 | 0.84 | 0 | 0.98 |
| Ear3 (GeneID 53876) | SID152259429 | no change with or without drug | 0.67 | 1.18 | 0 | 1 |
| Frem2 (GeneID 242022) | SID152259475 | no change with or without drug | 1.69 | 0.51 | 1.46 | 1.09 |
| Capzb (GeneID 12345) | SID152285897 | low cell count without drug only | 0.45 | -2.19 | 2.47 | 0.98 |
| Or52e4 (GeneID 258355) | SID152268277 | no change with or without drug | -0.22 | -1.52 | 1.01 | 0.92 |
| Plekhm1 (GeneID 353047) | SID152338222 | no change with or without drug | -0.22 | -0.17 | 0 | 0.92 |
| Klra3 (GeneID 16634) | SID152310940 | no change with or without drug | 0.45 | 1.69 | -0.56 | 0.98 |
| Epha1 (GeneID 13835) | SID152310717 | no change with or without drug | 0 | -0.84 | 0.67 | 0.94 |
| Or8i2 (GeneID 258763) | SID152321504 | no change with or without drug | 1.46 | 1.01 | 0.9 | 1.07 |
| Lamtor1 (GeneID 66508) | SID152280053 | no change with or without drug | -1.8 | -0.51 | -1.46 | 0.78 |
| Trappc13 (GeneID 66975) | SID152336457 | no change with or without drug | 1.8 | 0.84 | 1.35 | 1.1 |
| Prss27 (GeneID 213171) | SID152276536 | low cell count without drug only | 0.9 | -2.53 | 3.26 | 1.02 |
| Pcdhb18 (GeneID 93889) | SID152309938 | high cell count with doxorubicin only | 2.59 | 0.84 | 2.14 | 1.17 |
| Tbrg3 (GeneID 21378) | SID152299712 | no change with or without drug | -1.01 | -1.18 | -0.11 | 0.85 |
| Acadvl (GeneID 11370) | SID152342307 | no change with or without drug | -0.34 | -0.84 | 0.34 | 0.91 |
| Kcnh3 (GeneID 16512) | SID152340784 | no change with or without drug | 0.67 | 0.84 | 0.22 | 1 |
| Pvr (GeneID 52118) | SID152314201 | no change with or without drug | -0.67 | -0.84 | 0 | 0.88 |
| Pvr (GeneID 52118) | SID152333128 | no change with or without drug | -0.67 | 0.51 | -0.9 | 0.88 |
| Rab27b (GeneID 80718) | SID152288590 | no change with or without drug | 0.22 | 1.85 | -0.79 | 0.96 |
| Dynlt2b (GeneID 66061) | SID152269274 | no change with or without drug | -1.24 | -1.35 | -0.34 | 0.83 |
| Arfrp1 (GeneID 76688) | SID152318323 | no change with or without drug | -0.67 | 0 | -0.56 | 0.88 |
